Reference: patent US20110086044A1, “Compositions and Methods to Inhibit HPV Infection” (University of Southern California, priority 2009, published 2011)
These are yes or no findings as the source states them, for the method shown. Some entries that bind do so weakly or less than the wild type.

The chains behind the UniProt entries cited, without tags or fusion partners. Where a name states a change or a piece, a line headed by the entry shows the natural chain unless it says otherwise.
UniProt P60903: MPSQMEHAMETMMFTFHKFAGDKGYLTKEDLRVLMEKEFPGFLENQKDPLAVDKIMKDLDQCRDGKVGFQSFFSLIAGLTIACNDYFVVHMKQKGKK
UniProt P03107: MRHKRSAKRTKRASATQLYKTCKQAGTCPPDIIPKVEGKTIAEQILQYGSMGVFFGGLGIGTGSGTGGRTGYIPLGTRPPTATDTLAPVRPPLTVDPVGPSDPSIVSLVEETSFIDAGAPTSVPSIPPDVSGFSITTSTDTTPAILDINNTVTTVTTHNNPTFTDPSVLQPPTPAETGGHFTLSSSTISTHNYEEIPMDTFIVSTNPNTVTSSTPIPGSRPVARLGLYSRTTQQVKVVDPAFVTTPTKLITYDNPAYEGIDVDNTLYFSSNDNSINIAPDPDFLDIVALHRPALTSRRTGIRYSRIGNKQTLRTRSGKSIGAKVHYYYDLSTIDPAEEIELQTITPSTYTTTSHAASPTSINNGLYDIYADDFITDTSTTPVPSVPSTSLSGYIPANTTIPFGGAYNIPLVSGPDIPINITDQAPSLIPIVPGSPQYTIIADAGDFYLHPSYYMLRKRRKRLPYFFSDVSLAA

Biological target: ANXA2 heterotetramer (human) (UniProt P60903)
Experiment: summary of the pulldown and binding assays of Example 2

Q: “HPV16 L2 protein (from UniProt P03107 1-473)” was tested. Which binding did it give?
A: The binding was “binds”.
